Laboratory results as given in publication PMC11316107.
No constants are given. Whether binding was seen depends on the method and setting. In cells and extracts the contact can be indirect. Some binding calls cover weakened binding; strength is not graded here. Tags and fused reporters may be left off the sequences shown.

The chains behind the UniProt entries cited, without tags or fusion partners.
UniProt P63208: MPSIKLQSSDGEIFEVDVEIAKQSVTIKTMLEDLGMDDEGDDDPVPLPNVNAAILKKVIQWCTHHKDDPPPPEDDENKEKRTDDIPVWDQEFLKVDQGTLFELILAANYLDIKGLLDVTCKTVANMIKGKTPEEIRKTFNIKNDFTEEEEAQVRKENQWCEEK

Biological target: T1, FLAG-FBXL4 (human) (UniProt Q9UKA2)
T1 sequence: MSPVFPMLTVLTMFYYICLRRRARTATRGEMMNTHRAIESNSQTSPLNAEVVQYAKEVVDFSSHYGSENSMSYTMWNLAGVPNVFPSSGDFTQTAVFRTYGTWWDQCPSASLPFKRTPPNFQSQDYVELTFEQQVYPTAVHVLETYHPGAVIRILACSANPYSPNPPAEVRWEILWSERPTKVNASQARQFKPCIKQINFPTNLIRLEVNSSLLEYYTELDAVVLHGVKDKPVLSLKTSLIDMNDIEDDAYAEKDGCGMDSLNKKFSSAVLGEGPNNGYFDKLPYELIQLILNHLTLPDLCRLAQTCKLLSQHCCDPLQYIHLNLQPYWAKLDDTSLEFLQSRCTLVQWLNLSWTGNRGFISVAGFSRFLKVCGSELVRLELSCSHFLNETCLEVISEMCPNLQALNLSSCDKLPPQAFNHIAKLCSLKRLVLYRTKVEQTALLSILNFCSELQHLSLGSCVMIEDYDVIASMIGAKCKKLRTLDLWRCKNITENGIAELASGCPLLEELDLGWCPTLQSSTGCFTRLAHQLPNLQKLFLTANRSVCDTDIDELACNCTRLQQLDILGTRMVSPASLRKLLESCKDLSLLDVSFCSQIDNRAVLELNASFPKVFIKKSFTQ
Test: co-IP; FLAG-FBXL4 as bait on anti-FLAG beads from transfected 293T or 293T PPTC7 KO cells; MLN4924 24 h where indicated; Tris-Triton lysis buffer; immunoblot

binding: binds
Substance: SKP1 (endogenous) (from UniProt P63208 1-163)
